Record: PubChem BioAssay AID602196 (INSERM, 2012)

- Aim: 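Modifiers of cisplatin sensitivity in A549 cells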
- Cells: human A549 lung cancer cells
- Reagents: siRNA pair against human genes
- Timing: 48 h transfection before cisplatin; time from cisplatin to read-out not stated
- Treatment: cisplatin at a dose killing half of control-siRNA cells; exact dose and duration not given
- Detection: 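Cisplatin cell death as a shift from the 50% death seen with control siRNA; siRNAs toxic or growth-blocking alone scored 0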
- Reading the numbers: two-siRNA summed score (-2 to +2): higher = both siRNAs protect from cisplatin killing; -2 means both sensitise; mean protection from cisplatin (shift in death) and protection from cisplatin (shift in death), siRNA C: higher = protection from cisplatin killing
- Active means: 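siRNAs harmful alone (LDH or WST-1) get 0; others get +1 for less and -1 for more cisplatin killing; genes are active when the two siRNAs give the same sign, summing to ±2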
- Calls: active = both siRNAs shift cisplatin killing the same way; inactive = no consistent shift, or siRNA harmful alone
The deposit covers about 23,000 reagents; below is a part drawn at random. 455 of them (2%) were called active. 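Active includes both protection and sensitisation; some change values fall well beyond the stated -50 to +50 range.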 Entries without a mark were called inactive. Further read-outs or replicates are left out here. The record does not give: the amount of reagent.

| gene symbol | two-siRNA summed score (-2 to +2) | mean protection from cisplatin (shift in death) (%) | protection from cisplatin (shift in death), siRNA C (%) |
| --- | --- | --- | --- |
| TMEM131L | 1 | 11.1 | 4.7 |
| LOC401287 | 0 | 6.6 | 9.4 |
| GPR78 | 0 | 2.1 | 13.9 |
| ZNF847P | 0 | 3.5 | 11.3 |
| ACTRT2 | 0 | 3.8 | 6.8 |
| KLRG1 | -1 | -4.1 | 6.2 |
| GNAI2 | 0 | 7.4 | 27 |
| SPR | 0 | 5.5 | 6.4 |
| KCNIP2 | 0 | 14.4 | 8.1 |
| GRIK3 | 0 | -11.8 | -19.1 |
| KIAA1223 | 0 | -4.5 | 2.8 |
| SNX13 | -1 | -12.9 | 7.4 |
| HYCC2 | 0 | 5.9 | 12.7 |
| ZDHHC19 | 0 | 0.7 | -1 |
| VIPR1 | 0 | 8.3 | 4.6 |
| CYP4B1 | 0 | 4 | 15.7 |
| DPP6 | 0 | 0 | -6.9 |
| LOC441339 | 1 | 12.3 | 15.4 |
| KIF4A | -1 | -18.7 | -22.7 |
| AGAP3 | 0 | -3.6 | -5.4 |
| FGF7 | 0 | 4.3 | 12 |
| LOC388453 | 0 | 37.9 | 49.6 |
| TMEM63A | 0 | 3 | 6.4 |
| GHDC | 0 | 2.6 | -0.2 |
| SCGB3A1 | 1 | 13.6 | 3.9 |
| LOC389850 | 1 | 5.9 | -1.3 |
| OTX2 | 0 | -11.2 | -9.9 |
| DCTN1 | 0 | 0.2 | 4.6 |
| OSR1 | 0 | 1.3 | 1.9 |
| ABHD16A | 0 | 17.1 | 28.6 |
| SLC16A14 | 0 | 6 | 3.9 |
| DGKH | 0 | -13.5 | -19.5 |
| LOC145845 | 0 | -0.7 | -3.5 |
| LOC388116 | -1 | -3.9 | -14.7 |
| RPF2 | 0 | 3.5 | 7.9 |
| ESAM | 0 | 37.8 | 17.5 |
| CCDC78 | -1 | -3.7 | 5.2 |
| TERF1 | 0 | 12.8 | 18.2 |
| IL9R | 0 | 21.5 | 25.1 |
| MAP2K7 | 0 | 6.3 | 10.1 |
| TBCA | 0 | 5.4 | -7.9 |
| CFAP263 | 0 | -1 | -3.1 |
| RAPGEF6 | 0 | 11.7 | 19.5 |
| BYSL | -1 | -2 | -12.9 |
| CCDC81 | 0 | 1.3 | -0.3 |
| LOC147942 | 0 | 3.8 | 4.8 |
| CLDN8 | 0 | 6.8 | 9.7 |
| SLC27A5 | 0 | 8.8 | 13.2 |
| ADAMTS18 | 0 | 0.4 | -5.2 |
| RSPH9 | 2 (active) | 18.4 | 12.3 |
| LOC442398 | -1 | -10.7 | -1.4 |
| OR10H1 | 0 | -2.4 | -1.4 |
| NIT2 | 1 | 16.1 | 38.2 |
| ISLR2 | 0 | -15.2 | -12.7 |
| HDGFL1 | -1 | -5 | -17.4 |
| LOC402336 | 1 | 16.3 | 6.5 |
| OTUD7B | 0 | -9.5 | -7.4 |
| RRN3 | 0 | 4.2 | 2.1 |
| SUGP2 | -1 | -6.6 | 5.2 |
| PRSS22 | -1 | -4 | 21.3 |
| KRT15 | -1 | -6.7 | 9.9 |
| SZRD1 | 0 | -2.3 | -1.7 |
| PWWP3B | 0 | -0.1 | 16 |
| LOC440484 | 0 | 6.1 | 16.6 |
| LOC440689 | 0 | 10.2 | 13.4 |
| IDO1 | -1 | -16.1 | -13.6 |
| LINC01191 | 0 | 6.5 | 5.3 |
| ZNF358 | 0 | -0.8 | 7.1 |
| WIPF2 | 0 | 10.2 | 18.1 |
| LOC442584 | 0 | -2.8 | -4.5 |
| TAL2 | 0 | 0.4 | 1.7 |
| LOC440345 | 0 | 9.5 | 10.7 |
| KIAA1030 | 0 | 6.2 | 3.3 |

Sorted by “mean protection from cisplatin (shift in death) (%)” (ascending): some entries from above.
| gene symbol | two-siRNA summed score (-2 to +2) | mean protection from cisplatin (shift in death) (%) | protection from cisplatin (shift in death), siRNA C (%) |
| --- | --- | --- | --- |
| IDO1 | -1 | -16.1 | -13.6 |
| LOC442584 | 0 | -2.8 | -4.5 |
| SZRD1 | 0 | -2.3 | -1.7 |
| ZNF358 | 0 | -0.8 | 7.1 |
| PWWP3B | 0 | -0.1 | 16 |
| LOC440484 | 0 | 6.1 | 16.6 |
| LINC01191 | 0 | 6.5 | 5.3 |
| LOC440689 | 0 | 10.2 | 13.4 |
| WIPF2 | 0 | 10.2 | 18.1 |
